# Results published in the supplement of paper PMC10849652.
# Sequences of proteins named here, by UniProt entry; tags and fusion partners are left off. A change or cut given only in a name is not applied to a line headed by its entry.
# UniProt P51825: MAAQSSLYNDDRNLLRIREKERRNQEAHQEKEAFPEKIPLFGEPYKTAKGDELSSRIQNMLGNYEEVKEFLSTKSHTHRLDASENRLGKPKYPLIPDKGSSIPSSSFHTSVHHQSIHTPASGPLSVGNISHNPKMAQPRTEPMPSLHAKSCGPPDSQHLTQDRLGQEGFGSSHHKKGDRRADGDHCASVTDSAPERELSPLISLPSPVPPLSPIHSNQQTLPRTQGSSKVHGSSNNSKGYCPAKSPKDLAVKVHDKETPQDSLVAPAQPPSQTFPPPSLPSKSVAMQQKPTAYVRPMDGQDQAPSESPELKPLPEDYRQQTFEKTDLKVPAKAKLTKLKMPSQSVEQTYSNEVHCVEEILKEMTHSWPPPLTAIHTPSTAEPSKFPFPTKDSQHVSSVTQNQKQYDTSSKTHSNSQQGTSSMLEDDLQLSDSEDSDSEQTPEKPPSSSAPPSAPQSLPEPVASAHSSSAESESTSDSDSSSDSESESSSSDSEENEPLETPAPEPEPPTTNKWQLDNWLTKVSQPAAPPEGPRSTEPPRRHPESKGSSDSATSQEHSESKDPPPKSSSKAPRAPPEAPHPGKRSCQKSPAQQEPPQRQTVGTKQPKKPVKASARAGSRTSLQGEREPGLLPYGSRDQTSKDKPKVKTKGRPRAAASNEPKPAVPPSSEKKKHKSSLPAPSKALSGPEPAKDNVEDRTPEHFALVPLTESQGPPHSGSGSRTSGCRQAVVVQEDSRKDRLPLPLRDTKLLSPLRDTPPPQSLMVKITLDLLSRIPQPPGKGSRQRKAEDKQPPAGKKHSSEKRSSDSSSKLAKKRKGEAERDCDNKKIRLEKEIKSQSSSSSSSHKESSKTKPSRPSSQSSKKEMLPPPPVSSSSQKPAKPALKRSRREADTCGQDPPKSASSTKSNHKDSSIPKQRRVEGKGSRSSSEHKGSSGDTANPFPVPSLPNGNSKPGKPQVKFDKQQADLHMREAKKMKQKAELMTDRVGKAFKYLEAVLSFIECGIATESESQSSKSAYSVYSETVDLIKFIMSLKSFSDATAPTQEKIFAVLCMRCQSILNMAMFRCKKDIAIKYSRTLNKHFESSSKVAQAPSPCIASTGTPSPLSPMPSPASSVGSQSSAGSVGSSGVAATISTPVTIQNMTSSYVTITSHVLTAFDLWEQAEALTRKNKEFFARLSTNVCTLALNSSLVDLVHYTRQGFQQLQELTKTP
# UniProt Q9NZD4: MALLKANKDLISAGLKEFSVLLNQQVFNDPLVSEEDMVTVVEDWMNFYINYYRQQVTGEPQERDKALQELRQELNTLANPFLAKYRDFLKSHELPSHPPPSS
# UniProt Q9UEY8: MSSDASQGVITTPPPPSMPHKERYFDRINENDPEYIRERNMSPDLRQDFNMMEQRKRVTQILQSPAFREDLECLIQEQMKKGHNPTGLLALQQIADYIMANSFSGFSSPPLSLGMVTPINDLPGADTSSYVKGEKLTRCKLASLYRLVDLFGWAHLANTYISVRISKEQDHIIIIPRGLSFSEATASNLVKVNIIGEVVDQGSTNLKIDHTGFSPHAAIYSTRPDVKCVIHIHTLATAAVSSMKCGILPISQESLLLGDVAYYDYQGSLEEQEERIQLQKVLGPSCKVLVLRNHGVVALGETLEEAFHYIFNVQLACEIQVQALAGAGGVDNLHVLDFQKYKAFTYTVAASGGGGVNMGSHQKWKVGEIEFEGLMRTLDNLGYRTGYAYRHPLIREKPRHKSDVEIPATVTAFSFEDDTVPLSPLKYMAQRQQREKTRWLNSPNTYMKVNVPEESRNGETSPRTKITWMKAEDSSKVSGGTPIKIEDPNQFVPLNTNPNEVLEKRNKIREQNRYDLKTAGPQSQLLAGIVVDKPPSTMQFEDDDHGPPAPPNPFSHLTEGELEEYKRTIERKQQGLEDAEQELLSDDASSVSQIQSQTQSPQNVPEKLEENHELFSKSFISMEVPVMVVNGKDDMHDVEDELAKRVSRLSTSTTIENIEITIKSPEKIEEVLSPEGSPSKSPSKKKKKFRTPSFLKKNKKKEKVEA
# UniProt Q3MIX3: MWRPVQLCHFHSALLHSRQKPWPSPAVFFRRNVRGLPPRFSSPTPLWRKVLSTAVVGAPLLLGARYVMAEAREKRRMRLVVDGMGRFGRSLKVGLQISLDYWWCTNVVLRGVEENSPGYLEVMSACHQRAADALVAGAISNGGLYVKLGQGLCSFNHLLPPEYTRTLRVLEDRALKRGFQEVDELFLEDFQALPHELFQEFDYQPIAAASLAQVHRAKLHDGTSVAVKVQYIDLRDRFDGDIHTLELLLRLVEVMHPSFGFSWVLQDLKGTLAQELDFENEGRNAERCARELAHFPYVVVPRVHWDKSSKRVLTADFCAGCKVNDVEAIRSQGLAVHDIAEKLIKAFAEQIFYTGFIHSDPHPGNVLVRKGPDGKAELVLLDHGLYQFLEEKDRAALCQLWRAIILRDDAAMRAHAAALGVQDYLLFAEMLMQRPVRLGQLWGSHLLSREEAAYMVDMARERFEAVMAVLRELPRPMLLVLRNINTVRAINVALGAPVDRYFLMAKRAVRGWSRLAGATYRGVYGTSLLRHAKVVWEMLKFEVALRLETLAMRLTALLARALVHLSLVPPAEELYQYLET
# UniProt Q04828: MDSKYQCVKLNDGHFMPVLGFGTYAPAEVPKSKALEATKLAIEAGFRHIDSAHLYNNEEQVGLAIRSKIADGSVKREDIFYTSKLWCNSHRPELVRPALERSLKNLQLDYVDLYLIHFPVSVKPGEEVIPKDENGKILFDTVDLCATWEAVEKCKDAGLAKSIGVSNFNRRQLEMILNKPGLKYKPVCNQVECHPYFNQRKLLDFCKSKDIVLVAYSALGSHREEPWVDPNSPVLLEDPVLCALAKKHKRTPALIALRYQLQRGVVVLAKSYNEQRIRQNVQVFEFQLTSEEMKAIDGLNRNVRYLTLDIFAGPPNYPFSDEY
# UniProt Q6RW13: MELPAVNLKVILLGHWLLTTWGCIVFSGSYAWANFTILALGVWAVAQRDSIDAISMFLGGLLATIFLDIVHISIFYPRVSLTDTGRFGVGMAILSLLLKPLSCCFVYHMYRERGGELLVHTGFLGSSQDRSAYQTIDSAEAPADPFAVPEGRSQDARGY
# UniProt Q9H981, whole entry, looked up: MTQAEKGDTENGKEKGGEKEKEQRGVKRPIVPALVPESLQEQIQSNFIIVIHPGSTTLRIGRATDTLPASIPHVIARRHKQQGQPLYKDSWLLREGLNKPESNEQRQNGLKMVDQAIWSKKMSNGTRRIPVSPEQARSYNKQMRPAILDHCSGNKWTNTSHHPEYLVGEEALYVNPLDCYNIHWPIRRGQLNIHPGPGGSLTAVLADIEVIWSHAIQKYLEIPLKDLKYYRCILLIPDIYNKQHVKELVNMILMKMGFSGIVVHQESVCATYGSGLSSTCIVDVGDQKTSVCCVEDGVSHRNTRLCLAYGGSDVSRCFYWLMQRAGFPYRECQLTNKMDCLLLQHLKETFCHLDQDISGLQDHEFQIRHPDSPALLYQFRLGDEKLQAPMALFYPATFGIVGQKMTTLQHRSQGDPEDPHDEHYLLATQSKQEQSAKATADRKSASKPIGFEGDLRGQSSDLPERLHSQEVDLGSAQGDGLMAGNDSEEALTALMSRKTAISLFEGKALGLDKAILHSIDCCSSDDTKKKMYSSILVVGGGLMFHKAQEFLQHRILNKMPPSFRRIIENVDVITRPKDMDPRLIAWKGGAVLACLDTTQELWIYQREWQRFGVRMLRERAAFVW
# UniProt Q8N157: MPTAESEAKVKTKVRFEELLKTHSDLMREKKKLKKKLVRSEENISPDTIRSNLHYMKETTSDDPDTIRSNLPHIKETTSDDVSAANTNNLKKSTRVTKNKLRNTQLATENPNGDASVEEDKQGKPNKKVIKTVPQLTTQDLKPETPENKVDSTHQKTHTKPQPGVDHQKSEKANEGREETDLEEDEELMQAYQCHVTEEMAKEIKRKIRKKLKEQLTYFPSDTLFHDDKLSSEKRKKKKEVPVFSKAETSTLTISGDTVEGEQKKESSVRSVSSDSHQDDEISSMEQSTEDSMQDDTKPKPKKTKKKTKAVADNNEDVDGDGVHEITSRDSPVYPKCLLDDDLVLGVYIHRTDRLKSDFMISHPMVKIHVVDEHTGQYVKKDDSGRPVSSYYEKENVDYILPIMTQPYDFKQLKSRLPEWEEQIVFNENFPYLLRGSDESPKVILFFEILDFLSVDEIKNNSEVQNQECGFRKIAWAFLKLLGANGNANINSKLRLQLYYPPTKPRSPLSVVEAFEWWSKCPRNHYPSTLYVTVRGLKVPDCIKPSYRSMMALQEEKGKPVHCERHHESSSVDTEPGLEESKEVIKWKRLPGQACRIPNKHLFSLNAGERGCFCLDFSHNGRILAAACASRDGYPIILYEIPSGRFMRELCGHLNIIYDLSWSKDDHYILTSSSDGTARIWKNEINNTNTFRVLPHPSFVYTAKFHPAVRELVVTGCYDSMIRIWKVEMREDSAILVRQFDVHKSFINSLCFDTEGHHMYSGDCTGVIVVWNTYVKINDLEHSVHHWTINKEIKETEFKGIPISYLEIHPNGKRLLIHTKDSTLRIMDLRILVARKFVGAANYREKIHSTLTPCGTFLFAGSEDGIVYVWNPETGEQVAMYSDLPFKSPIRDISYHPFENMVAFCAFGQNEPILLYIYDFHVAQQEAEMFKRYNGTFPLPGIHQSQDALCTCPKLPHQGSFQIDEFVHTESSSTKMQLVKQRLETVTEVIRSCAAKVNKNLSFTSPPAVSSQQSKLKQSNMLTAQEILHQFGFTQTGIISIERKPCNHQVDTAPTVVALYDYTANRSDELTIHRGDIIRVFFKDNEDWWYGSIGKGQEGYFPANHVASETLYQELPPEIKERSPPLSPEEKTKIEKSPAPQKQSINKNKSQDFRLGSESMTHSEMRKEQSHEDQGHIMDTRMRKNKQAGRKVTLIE
# UniProt P20933: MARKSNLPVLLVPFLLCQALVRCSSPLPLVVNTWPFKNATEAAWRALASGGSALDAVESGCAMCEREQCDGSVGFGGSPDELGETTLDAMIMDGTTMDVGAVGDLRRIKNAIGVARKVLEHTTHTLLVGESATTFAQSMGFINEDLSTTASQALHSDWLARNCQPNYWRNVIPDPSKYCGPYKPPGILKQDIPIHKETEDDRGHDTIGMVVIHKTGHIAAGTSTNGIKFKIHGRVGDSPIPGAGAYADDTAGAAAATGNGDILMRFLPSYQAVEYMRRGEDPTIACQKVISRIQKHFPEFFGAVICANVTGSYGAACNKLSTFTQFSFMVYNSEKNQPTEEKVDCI
# UniProt Q9UKU0: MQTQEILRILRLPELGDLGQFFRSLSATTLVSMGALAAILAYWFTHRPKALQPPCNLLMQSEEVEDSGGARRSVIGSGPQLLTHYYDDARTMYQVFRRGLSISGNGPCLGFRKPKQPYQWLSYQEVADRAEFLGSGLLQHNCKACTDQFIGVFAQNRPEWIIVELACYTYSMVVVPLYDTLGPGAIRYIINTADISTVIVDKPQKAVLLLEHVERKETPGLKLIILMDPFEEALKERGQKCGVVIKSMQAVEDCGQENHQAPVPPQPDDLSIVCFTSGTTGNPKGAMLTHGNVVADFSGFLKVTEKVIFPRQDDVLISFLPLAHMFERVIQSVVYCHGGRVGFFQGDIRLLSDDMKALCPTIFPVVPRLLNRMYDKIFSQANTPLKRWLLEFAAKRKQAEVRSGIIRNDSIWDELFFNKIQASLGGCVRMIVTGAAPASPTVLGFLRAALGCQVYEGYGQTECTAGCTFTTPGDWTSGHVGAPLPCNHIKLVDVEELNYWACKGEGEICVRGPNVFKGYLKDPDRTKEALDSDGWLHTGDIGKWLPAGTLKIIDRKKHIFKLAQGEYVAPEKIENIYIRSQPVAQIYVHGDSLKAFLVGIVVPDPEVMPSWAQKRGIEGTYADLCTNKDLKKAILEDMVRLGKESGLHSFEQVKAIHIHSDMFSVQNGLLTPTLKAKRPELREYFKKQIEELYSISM
# UniProt P55008: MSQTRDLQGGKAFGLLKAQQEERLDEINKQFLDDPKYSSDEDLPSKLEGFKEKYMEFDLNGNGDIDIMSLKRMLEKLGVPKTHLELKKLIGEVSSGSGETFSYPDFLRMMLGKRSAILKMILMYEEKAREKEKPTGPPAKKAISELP
# UniProt Q9BQI0: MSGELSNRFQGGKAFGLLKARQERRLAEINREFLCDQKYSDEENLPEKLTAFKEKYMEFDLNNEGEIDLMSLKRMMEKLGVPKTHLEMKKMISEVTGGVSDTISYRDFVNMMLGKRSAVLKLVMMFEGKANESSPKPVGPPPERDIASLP
# UniProt O15120: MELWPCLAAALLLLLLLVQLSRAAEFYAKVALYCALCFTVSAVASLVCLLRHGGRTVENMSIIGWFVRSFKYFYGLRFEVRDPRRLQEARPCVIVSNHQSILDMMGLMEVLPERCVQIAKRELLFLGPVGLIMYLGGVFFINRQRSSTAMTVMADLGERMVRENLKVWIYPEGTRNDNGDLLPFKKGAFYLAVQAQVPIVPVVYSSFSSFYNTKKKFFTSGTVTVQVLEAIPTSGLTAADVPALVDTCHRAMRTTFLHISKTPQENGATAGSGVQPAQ
# Some of the results follow.
# Columns and labels:
# Assay in all cases: log2 fold change, soluble protein after heating vs DMSO (PISA); higher = thermal stabilisation; K562 lysate, 10 uM; active = over 0.2 and 3.5 SD of the protein, either way, in both replicates (recomputed)
# [1] = compound: C1=CC=C(C=C1)[C@H](COC2=CC3=C(C=C2)NC(=O)N3)NC(=O)C4=CC=CN(C4=O)CC5=CC(=C(C=C5)F)F
# Summary of the method: (§1)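 The values are log-two fold changes in thermal stability compared with solvent controls and come from duplicates. They were obtained by TMTpro 16plex LC-MS/MS, with channel sums equalised, on the supernatant after 21,000xg for 90 min. That supernatant came from crude K562 extract at 1 mg/mL protein treated with 10 μM compound for 30 min, heated for 3 min across 48°C-58°C, pooled and brought to 0.5% NP-40 at 4°C.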
# [2] = compound: CC1=C(SC2=C1C(=N[C@H](C3=NN=C(N32)C)CC(=O)N)C4=CC=C(C=C4)Cl)C
# Summary of the method: as §1
# [3] = compound: CC1=C2C(=CC=C1)N=C(N(C2=O)C3=CC=CC=C3C)CN4C=NC5=C(N=CN=C54)N
# Summary of the method: as §1
# [4] = compound: Cc1sc2c(c1C)C(c1ccc(Cl)cc1)=N[C@@H](CC(=O)OC(C)(C)C)c1nnc(C)n1-2
# Summary of the method: as §1
# [5] = compound: c1ccc([C@@H]2C[C@H]2NC2CCNCC2)cc1
# Summary of the method: as §1
Target,log2 fold change [1],log2 fold change [2],log2 fold change [3],log2 fold change [4],log2 fold change [5]
AIMP1 isoform 2 (UniProt Q12904),inactive: -0.033,inactive: 0.01,inactive: 0.006,inactive: 0.029,inactive: 0.044
AFF1 isoform 2 (UniProt P51825),inactive: -0.109,inactive: 0.133,inactive: -0.006,inactive: -0.087,inactive: -0.118
AHSP (UniProt Q9NZD4),inactive: 0.02,inactive: -0.083,inactive: -0.002,–,inactive: 0.239
ACTN4 (UniProt K7EJH8),inactive: -0.018,inactive: 0.013,–,inactive: 0.001,inactive: -0.042
AFAP1L1 (UniProt Q8TED9),inactive: 0.048,inactive: 0.02,–,inactive: -0.29,–
AK1 (UniProt P00568),inactive: -0.032,inactive: 0.024,inactive: -0.009,inactive: 0.012,inactive: 0.2
AGO1 (UniProt Q9UL18),inactive: -0.01,inactive: 0.017,inactive: 0.048,inactive: -0.013,inactive: 0.03
ADAM17 (UniProt P78536),inactive: -0.098,active: -0.251,inactive: 0.093,inactive: 0.002,inactive: -0.032
ACTG1 (UniProt I3L4N8),inactive: -0.042,inactive: -0.082,inactive: -0.098,inactive: -0.245,inactive: 0.218
ADD3 (UniProt Q9UEY8),inactive: 0.056,inactive: -0.011,inactive: 0.007,inactive: -0.011,inactive: 0.018
AK6 (UniProt Q9Y3D8),inactive: -0.003,inactive: 0.028,inactive: 0.008,inactive: -0.024,inactive: 0.09
ADCK1 (UniProt Q86TW2),–,–,inactive: 0.06,–,inactive: -0.165
ADCK5 (UniProt Q3MIX3),–,–,–,inactive: 0.212,–
AKR1C1 (UniProt Q04828),–,–,inactive: 0.015,inactive: -0.104,inactive: 0.088
"ACTB, A0A2R8YEA7",–,–,inactive: -0.048,–,inactive: -0.229
AFDN (UniProt A8MQ02),–,–,inactive: -0.113,–,–
AGO2 (UniProt E5RJY2),–,–,–,–,inactive: -0.101
AJUBA (UniProt Q96IF1),–,–,–,inactive: 0.199,–
AGFG2 (UniProt O95081),–,–,inactive: -0.022,inactive: 0.109,–
AGTRAP isoform 2 (UniProt Q6RW13),inactive: -0.124,inactive: -0.086,–,–,inactive: -0.013
ADCY3 (UniProt O60266),–,–,–,inactive: -0.001,–
ACTR8 (UniProt Q9H981),–,–,–,inactive: 0.092,–

Target,log2 fold change [1],log2 fold change [2],log2 fold change [3],log2 fold change [4],log2 fold change [5]
ADAD1 (UniProt Q96M93),–,–,inactive: 0.015,inactive: -0.027,–
AHCTF1 isoform 2 (UniProt Q8WYP5),–,–,–,–,inactive: 0.142
AHI1 (UniProt Q8N157),–,–,inactive: 0.068,–,–
AGA (UniProt P20933),–,–,inactive: 0.043,–,–
ACSL6 isoform 1 (UniProt Q9UKU0),inactive: 0.109,inactive: -0.051,–,–,inactive: -0.038
AKIRIN2 (UniProt Q53H80),–,–,inactive: -0.095,inactive: -0.142,inactive: 0.103
ACSL5 isoform 3 (UniProt Q9ULC5),inactive: -0.084,inactive: -0.005,–,inactive: 0.009,inactive: 0.067
AIF1 (UniProt P55008),–,–,inactive: 0.183,inactive: 0.063,inactive: 0.045
AFM (UniProt P43652),–,–,inactive: -0.072,–,inactive: 0.08
AIF1L (UniProt Q9BQI0),inactive: 0.072,inactive: -0.031,–,inactive: 0.049,inactive: -0.022
ADCY7 (UniProt P51828),–,–,–,inactive: 0.106,–
AKR1B10 (UniProt O60218),–,–,–,inactive: -0.196,–
ADD2 isoform 9 (UniProt P35612),–,–,inactive: -0.609,inactive: 0.147,inactive: 0.119
AGPAT4 (UniProt Q9NRZ5),inactive: 0.097,inactive: -0.119,–,–,inactive: 0.029
ACTN4 (UniProt H7C144),–,–,–,inactive: 0.073,–
AFG1L (UniProt Q8WV93),–,–,–,inactive: -0.013,–
AKAP17A (UniProt Q02040),–,–,–,inactive: -0.024,–
ADAMTSL4 isoform 3 (UniProt Q6UY14),inactive: -0.073,inactive: -0.103,–,inactive: -0.021,inactive: 0.066
AGPAT2 (UniProt O15120),–,–,inactive: -0.11,–,inactive: 0.034
AFMID isoform 2 (UniProt Q63HM1),–,–,inactive: 0.043,–,inactive: -0.009
ACVR2B (UniProt Q13705),–,–,inactive: 0.246,–,–
ADAM15 (UniProt Q13444),inactive: 0.007,inactive: -0.039,–,inactive: -0.183,inactive: -0.015

# Complete entries from above. Values in the order: log2 fold change [1] | log2 fold change [2] | log2 fold change [3] | log2 fold change [4] | log2 fold change [5]
# AGPAT2 (UniProt O15120) as listed: – | – | inactive: -0.11 | – | inactive: 0.034
# AFG1L (UniProt Q8WV93) as listed: – | – | – | inactive: -0.013 | –
